Laboratory results published in US7442513B2, “Method of screening for agents that modulate a homer signaling pathway” (The Johns Hopkins University, priority 2003, dated 2008).
“Also recorded” adds a separate entry of the source. At least one compound was matched to its structure with a doubt left.

How the values were obtained:
TrpC1 binding to Homer = test: TrpC1 binding to GSTHomer after treating lysates of TrpC1-expressing HEK293 cells; conditions: lysates treated with indicated concentrations
Protocol: TrpC1 was transiently expressed in HEK293 cells and lysates were treated with the indicated concentrations of FK506, GPI1046, cyclosporin A or aniracetam (negative control) and assayed for TrpC1 binding to GSTHomer. TrpC1 migrates as both a monomer and dimer. Note that FK506, GPI1046 and cyclosporin A (but not aniracetam) treatment results in increased TrpC1 binding to Homer.

Homer 1 = target: T1, Homer 1 (Rattus norvegicus, UniProt Q9Z214); test: Purified recombinant Homer 1 binding to synthetic mGluR5 Homer-ligand peptide (control experiment); conditions: Homer 1 pretreated with 50 micromolar
T1 sequence (Q9Z214 1-366): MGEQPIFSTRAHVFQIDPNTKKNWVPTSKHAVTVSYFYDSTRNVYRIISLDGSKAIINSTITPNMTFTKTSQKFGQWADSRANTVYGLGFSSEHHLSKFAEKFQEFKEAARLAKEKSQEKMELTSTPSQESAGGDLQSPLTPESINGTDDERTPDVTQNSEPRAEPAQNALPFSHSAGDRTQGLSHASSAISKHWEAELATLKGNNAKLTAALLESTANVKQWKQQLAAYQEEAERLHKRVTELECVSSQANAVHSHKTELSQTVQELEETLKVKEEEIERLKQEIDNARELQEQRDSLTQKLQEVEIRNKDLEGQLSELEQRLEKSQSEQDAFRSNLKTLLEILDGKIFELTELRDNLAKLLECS

mGluR5 binding to Homer = test: mGluR5 binding to GST-Homer after treating mGluR5-expressing HEK293 cells with PPIase inhibitors (pull-down, western blot); assay type: cell-based
Protocol: HEK293 cells were transfected with pRK5-mGluR5. 1 micromolar FK506 was added to the medium for differing intervals prior to harvesting and preparation of lysates in the indicated buffer, which include inhibitors of phosphatases and proteases. Lysates were mixed with glutathione agarose beads loaded with GST-Homer 3 EVH1 domain for 1 hr at 4 C. mGluR5 that bound to Homer was then analyzed by western blot. Lysates were also assayed to confirm expression of mGluR5 (lower panel). Note the increase in mGluR5 that binds to Homer from lysates of cells treated for 3 hrs or longer with FK506.
If PPIases regulate the conformational state of the mGluR5, it was anticipated that PPIase inhibitors would alter the ability of the mGluR5 to bind to Homer. To examine this hypothesis, Homer was expressed as a bacterial fusion protein with glutathione S-transferase (GST) and loaded the protein on a glutathione agarose bead. These binding assays are identical to those used previously to document the ligand consensus sequence in mGluR5 (Tu et al., 1998), and for analysis of the binding surfaces of Homer (Beneken et al., 2000).
Cells were treated for different times with PPIase inhibitors and then harvested in buffer containing protease and phosphatase inhibitors and 1% Triton detergent. […] Increased binding was detected by 3 hrs and remained elevated for 24 hrs.

Homer binding to mGluR1 = test: Effect of FK-506 on Homer-mGluR1 interaction in vivo (rat cerebellum); conditions: adult rats, 10 mg/kg i.p., cerebellum collected after 3 hours
[1] = target: T2, TrpC1 binding to GST-FKBP52 (Homo sapiens, UniProt Q02790); test: TrpC1 binding to GST-FKBP52 after pretreating cell lysates with PPIase inhibitors
T2 construct: expressed in transfected cells; host or cells: HEK293 cell lysate (TrpC1)
T2 sequence (Q02790 1-459): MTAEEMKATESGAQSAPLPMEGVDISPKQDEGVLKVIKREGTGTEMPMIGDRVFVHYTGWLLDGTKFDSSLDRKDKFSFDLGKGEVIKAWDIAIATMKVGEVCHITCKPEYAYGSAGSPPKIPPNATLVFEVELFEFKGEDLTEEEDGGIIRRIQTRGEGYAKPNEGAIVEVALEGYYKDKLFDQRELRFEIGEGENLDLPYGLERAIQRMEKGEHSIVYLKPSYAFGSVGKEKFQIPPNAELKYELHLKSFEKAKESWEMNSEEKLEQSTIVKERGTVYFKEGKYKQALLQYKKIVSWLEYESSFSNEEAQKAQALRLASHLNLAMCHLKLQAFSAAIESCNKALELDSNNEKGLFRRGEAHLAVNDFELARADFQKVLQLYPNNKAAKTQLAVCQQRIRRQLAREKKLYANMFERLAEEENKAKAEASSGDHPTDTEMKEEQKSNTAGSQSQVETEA
Text: To further test this hypothesis, the binding of TrpC1 to GST-FKBP12 or GST-FKBP52 was examined. Also, the effect of pretreating cell lysates with FK506, GPI-1046, cyclosporin A or the control agent aniracetam (structurally similar to GPI-1946) was examined. The notion being that dissociation of endogenous FKBP would increase the availability of TrpC1 to bind GST-FKBP in vitro. The FK506 might also be expected to bind to GST-FKBP but because this protein is highly concentrated on the bead and is in vast excess to cellular FKBP, the net consequence of drug treatment would be increased binding of TrpC1 to GST-FKBP. In these assays, TrpC1 bound to FKBP52 (FIG. 15), but not to FKBP12. Binding of TrpC1 to GST-FKBP52 was increased by treatment with both FK506 and GPI1046. The effect of these agents was particularly robust for the dimeric TrpC1 species and was detected with 100 nM FK506 or GPI1046. These studies confirmed that TrpC1 is bound by Homer and FKBP52, and that treatment of cell lysates or cells with drugs that inhibit rotamase activity and dissociate rotamases from their target proteins, result in enhanced binding of TrpC1 to both Homer (FIG. 14) and FKBP52 (FIG. 15).

[2] = tested on: TrpC1 binding to Homer1EVH1; test: TrpC1 binding to GST-Homer1 EVH1 after treating TrpC1-expressing HEK293 cells with FK506; assay type: cell-based; conditions: 150 nM
Protocol: HEK293 cells that transiently express TrpC1 were treated with FK506 for indicted time prior to preparation of lysates and binding to GST-Homer. Note that FK506 treatment increases TrpC1 binding to Homer.
An observation from the Homer-TrpC1 binding data remained enigmatic. […] Additionally, certain point mutants of the C-terminal Homer ligand increase binding to Homer. […] The possibility that an FKBP homologue might bind mammalian TrpC1 and impact the binding of Homer was explored. As a first test of this hypothesis, the consequence of treating cells expressing TrpC1 with FK506, and then testing TrpC1 binding to GST-Homer was examined. HEK293 cells were transfected with wt TrpC1 and treated with 150 nM FK506 for times ranging from 15 min to 24 hrs. Cells lysates were prepared in 1% Triton and mixed with GST-Homer1 EVH1 and bound TrpC1 assayed by western blot. Lysates were also assayed to compare expression in each of the samples. […] This effect was detected as early as 30 min after addition of FK506 and persisted for 24 hrs. A peak of increased binding appeared at ˜6hrs. […] It was concluded that FK506 increases the binding of TrpC1 to Homer at a dose that is known to the relevant for FKBP.

## C=CC[C@@H]1/C=C(\C)C[C@H](C)C[C@H](OC)[C@H]2O[C@@](O)(C(=O)C(=O)N3CCCC[C@H]3C(=O)O[C@H](/C(C)=C/[C@@H]3CC[C@@H](O)[C@H](OC)C3)[C@H](C)[C@@H](O)CC1=O)[C@H](C)C[C@@H]2OC [FK506]
TrpC1 binding to Homer
  effect on TrpC1 binding to Homer: increased; also recorded: enhanced
Homer 1
  effect on Homer 1 binding to mGluR5 synthetic peptide: not affected
mGluR5 binding to Homer; 1 micromolar, HEK293 cells
  effect on expression of mGluR5 in lysates: did not substantially alter
mGluR5 binding to Homer; HEK293 cells expressing mGluR5, 1 micromolar in medium, differing intervals
  effect on mGluR5 binding to GST-Homer: time-dependent increase
Homer binding to mGluR1
  Homer binding to mGluR1 versus control: increases
[1]; dimeric TrpC1 species, pretreated lysates
  concentration at which increased TrpC1 binding to GST-FKBP52 was detected: 100 nM
[1]; pretreated cell lysates
  effect on binding of TrpC1 to GST-FKBP52: increased
[2]; 15 min to 24 hrs, HEK293 cells transfected with wt TrpC1
  effect on amount of TrpC1 that binds Homer1EVH1: increases
[2]; during time course
  effect on expression of TrpC1: not significantly altered
